Experimental findings from article PMC6824560, “Insight into the relationship between aryl-hydrocarbon receptor and β-catenin in human colon cancer cells” (PLoS ONE, 2019) are described below.

Chains of the proteins cited; added tags and fusions are not shown. Lines headed by an entry give the natural chain unless they say otherwise; changes in a name come on top.
UniProt P30561: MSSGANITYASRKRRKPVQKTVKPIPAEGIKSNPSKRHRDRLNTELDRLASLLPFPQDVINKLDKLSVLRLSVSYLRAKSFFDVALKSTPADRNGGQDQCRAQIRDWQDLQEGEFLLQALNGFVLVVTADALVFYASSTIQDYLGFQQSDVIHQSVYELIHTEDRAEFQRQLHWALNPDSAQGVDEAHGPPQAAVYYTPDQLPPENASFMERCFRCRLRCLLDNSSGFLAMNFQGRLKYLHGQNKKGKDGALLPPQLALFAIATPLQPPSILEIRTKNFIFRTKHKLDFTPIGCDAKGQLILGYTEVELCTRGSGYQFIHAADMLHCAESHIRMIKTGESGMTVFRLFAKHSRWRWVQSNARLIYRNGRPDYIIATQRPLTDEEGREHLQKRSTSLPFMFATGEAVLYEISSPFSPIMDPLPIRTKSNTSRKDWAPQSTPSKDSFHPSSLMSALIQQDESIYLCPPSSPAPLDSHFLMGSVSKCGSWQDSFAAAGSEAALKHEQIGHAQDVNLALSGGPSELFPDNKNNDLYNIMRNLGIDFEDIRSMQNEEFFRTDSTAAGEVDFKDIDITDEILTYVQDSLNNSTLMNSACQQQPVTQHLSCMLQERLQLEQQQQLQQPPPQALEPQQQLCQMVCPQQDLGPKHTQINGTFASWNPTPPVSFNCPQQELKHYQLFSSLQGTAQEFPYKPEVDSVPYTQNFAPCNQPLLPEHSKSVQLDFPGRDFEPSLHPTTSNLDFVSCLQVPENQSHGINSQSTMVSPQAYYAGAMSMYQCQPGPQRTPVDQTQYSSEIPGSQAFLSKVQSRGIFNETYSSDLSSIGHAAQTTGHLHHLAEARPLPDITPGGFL
UniProt P35222: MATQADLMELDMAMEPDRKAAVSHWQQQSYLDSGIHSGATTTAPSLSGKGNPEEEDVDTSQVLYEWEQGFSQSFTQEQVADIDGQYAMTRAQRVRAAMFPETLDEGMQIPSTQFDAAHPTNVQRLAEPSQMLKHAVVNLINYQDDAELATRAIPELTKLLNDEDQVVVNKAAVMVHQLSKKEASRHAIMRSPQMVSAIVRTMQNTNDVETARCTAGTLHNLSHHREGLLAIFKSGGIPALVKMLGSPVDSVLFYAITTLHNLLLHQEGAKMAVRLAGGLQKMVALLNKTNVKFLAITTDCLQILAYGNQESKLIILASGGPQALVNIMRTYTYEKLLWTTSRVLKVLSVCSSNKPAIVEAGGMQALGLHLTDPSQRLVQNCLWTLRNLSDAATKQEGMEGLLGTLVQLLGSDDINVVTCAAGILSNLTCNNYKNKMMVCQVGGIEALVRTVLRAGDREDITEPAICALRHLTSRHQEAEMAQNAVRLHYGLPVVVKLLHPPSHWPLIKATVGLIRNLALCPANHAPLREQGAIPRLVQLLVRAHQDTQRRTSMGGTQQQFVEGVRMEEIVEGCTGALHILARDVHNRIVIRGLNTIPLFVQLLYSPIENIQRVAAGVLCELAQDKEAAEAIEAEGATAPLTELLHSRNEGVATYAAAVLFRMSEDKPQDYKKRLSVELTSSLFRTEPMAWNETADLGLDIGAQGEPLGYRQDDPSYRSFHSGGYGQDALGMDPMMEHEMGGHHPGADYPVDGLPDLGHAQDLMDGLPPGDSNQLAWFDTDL

No constants are given. Whether binding was seen depends on the method and setting. Binding seen in cells or lysates may run through a third protein. A result given as binding can be weak or reduced; the word gives no strength.

For this assay, the target named is mouse AhR (pCI-mAhR) (mouse) (UniProt P30561). The experiment in a line: co-IP; nuclear extracts of HCT116 cells transfected with pCI-mAhR and pCI-βcat, exposed to 1 μM 3MC or DMSO with or without 100 μM MG-132 for 2 h; precipitated with anti-AhR antibody and protein G Sepharose; immunoblot for β-catenin, CUL4B and Arnt.

In the case of “wild-type β-catenin (pCI-βcat) (from UniProt P35222 1-781)”, the binding entry is reported as “binds”.
